Results on two sequences are retold here after doi:10.1101/2022.04.29.490116.

The target of series [1] is T1, StbA (Escherichia coli plasmid R388) (UniProt Q6I6C4).
T1 sequence (looked up, limits assumed): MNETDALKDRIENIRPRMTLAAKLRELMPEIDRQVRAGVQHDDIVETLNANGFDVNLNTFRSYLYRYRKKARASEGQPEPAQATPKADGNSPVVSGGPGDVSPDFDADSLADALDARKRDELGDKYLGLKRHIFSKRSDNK
Description: EMSA.

Series [2] concerns the target T2, StbA1-75 (Escherichia coli plasmid R388) (UniProt Q6I6C4).
T2 sequence (looked up): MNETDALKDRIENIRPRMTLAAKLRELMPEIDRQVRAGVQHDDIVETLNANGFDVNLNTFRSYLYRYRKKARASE
The series can be described thus: EMSA. Particulars: no discrete stable complex at 0.5-4 uM, slow complex at 8 uM; residues 1-75. On the technique in general: A gel shift assay detects complexes by their altered migration in electrophoresis.

A weaker result is weaker than the reference pair of the same experiment. Protein sequences can lack the tags named with them. For part of these data: Construct, isoform or probe ends are uncertain for at least one entry.

For the sequence “CTTGCTTGCTGCATCATTTCCCTCTTGCAAGCCCGGTTTCCGTCCGTTTTAGCTCATTTTCTGCATCATCCCAATGCCGA (double strand) [stb2' (stb2b)]”, the binding result in series [1] (smear as with stb1) was “binds more weakly”.
On to “CCGTTCTAGCTCATTCTGTTCTTGCTTGCTGCATCATCATAGTTGCAACCCAATGCCGATCTAGCTCATTACTGTTCTAT (double strand) [stb1]”, for which the binding result in series [2] is recorded as “binds more weakly”; in series [1] (smear, specific but unstable) it was “binds more weakly”.
